Results taken from article PMC6297782, “DNA-Mediated Interferon Signature Induction by SLE Serum Occurs in Monocytes Through Two Pathways: A Mechanism to Inhibit Both Pathways” (Frontiers in Immunology, 2018).
Results are given in words; binding and its absence hold for the method and conditions named. Some entries that bind do so weakly or less than the wild type.

Sequences of proteins named here, by UniProt entry; tags and fusion partners are left off. Residues count along the entry.
UniProt Q15109, residues 23-342: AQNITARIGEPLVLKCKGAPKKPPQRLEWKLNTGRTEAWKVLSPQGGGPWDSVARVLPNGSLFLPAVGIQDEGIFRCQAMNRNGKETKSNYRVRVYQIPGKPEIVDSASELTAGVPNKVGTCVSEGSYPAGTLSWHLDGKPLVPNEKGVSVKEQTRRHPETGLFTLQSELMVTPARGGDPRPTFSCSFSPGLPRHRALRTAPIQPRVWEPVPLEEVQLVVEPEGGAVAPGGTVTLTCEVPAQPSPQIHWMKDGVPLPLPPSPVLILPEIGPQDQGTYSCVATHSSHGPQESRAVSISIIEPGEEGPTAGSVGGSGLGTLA
UniProt P09429: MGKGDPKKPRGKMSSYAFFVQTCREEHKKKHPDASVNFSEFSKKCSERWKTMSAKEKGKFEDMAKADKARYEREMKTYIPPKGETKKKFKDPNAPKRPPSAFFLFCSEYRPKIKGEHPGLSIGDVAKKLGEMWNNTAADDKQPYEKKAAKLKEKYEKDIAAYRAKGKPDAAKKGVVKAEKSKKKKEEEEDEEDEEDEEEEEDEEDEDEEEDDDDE

Key:
[1] = molecular target: Human recombinant sRAGE (human) (UniProt Q15109); assay: SPR; inhibition assay, Biacore T200; sRAGE amine-coupled to a CM5 chip (~500 RU); HMGB1 (0.5 μM) with or without DWEYS 50 to 1.6 μM injected at 30 μL/min for 60 s, 25°C; PBS + 0.05 Tween 20; both purified
[2] = molecular target: Recombinant HMGB1 (Calmodulin Binding Protein Epitope, Cbp tagged) (UniProt P09429); assay: ELISA; HMGB1-coated plates, increasing concentrations of DWEYS; both purified
[3] = molecular target: Recombinant HMGB1 (Calmodulin Binding Protein Epitope, Cbp tagged) (UniProt P09429); assay: SPR; Biacore T200; HMGB1 amine-coupled to a CM5 chip (~600 RU); peptide injected at 16-250 μM, 20 μL/min, 120 s, 25°C; 1:1 binding assumed; apparent KD; both purified

Recombinant HMGB1 (Calmodulin Binding Protein Epitope, Cbp tagged) (from UniProt P09429 1-215)
binding [1]: binds

B1: DWEYS peptide (peptide)
peptide: DWEYS
notes: the biotinylated form may have been used there; also called pentapeptide DWEYS; DNA mimetope; source: synthetic peptide (GenScript)
binding [2]: binds

TATAT [control peptide (sequence: TATAT)]
binding [3]: no binding
binding [2]: no binding
